Results deposited as PubChem BioAssay AID652272 (Drosophila RNAi Screening Center, 2013).
Aim: 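Genome-wide knock-down search for components of Hedgehog signalling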 (primary screen). Cells: Drosophila clone 8 (Cl8) cells. Knock-down reagent: long dsRNA against Drosophila genes. Detection: 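Firefly light from a Hedgehog-responsive ptc promoter reporter and Renilla reference light, both read on a plate reader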. Direction: firefly Hh reporter signal: higher = more ptc reporter light; Renilla reference signal: higher = more Renilla control light. Rule for the call: 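Hit when the z-score averaged over two replicates is under -2 or over +3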. Meaning of the calls: active = hit: reporter lowered or raised; inactive = not a hit.
The deposit covers about 21,000 reagents; below is an unselected part of those with a known target gene and a result. Of all reagents, 503 (2.4%) were called active. 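Raw plate light values, not normalised; calls rest on replicate z-scores that were not deposited; hits include reporter decreases as well as increases.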 Names joined by + are all predicted targets of the reagent. Reagent sequences are not shown. Not given: the amount of reagent, the time to read-out.

CAH2 (GeneID 39390)
- firefly Hh reporter signal, replicate 1: 39344
- firefly Hh reporter signal, replicate 2: 40954
- firefly Hh reporter signal, replicate 3: 52498
- Renilla reference signal, replicate 1: 3970
- Renilla reference signal, replicate 2: 3738
- call: inactive

CG42306 + Gint3
- firefly Hh reporter signal, replicate 1: 76359
- firefly Hh reporter signal, replicate 2: 43888
- Renilla reference signal, replicate 1: 4708
- Renilla reference signal, replicate 2: 2656
- call: inactive

CG15011 (GeneID 38518)
- firefly Hh reporter signal, replicate 1: 99633
- firefly Hh reporter signal, replicate 2: 47239
- Renilla reference signal, replicate 1: 3509
- Renilla reference signal, replicate 2: 1814
- call: inactive

PolA2 (GeneID 43278)
- firefly Hh reporter signal, replicate 1: 76961
- firefly Hh reporter signal, replicate 2: 1.22e5
- Renilla reference signal, replicate 1: 3171
- Renilla reference signal, replicate 2: 3936
- call: inactive

tra2 (GeneID 36619)
- firefly Hh reporter signal, replicate 1: 1.16e5
- firefly Hh reporter signal, replicate 2: 80864
- Renilla reference signal, replicate 1: 4883
- Renilla reference signal, replicate 2: 3024
- call: inactive

CG11409 (GeneID 31078)
- firefly Hh reporter signal, replicate 1: 74682
- firefly Hh reporter signal, replicate 2: 92624
- Renilla reference signal, replicate 1: 919
- Renilla reference signal, replicate 2: 2944
- call: inactive

CtIP (GeneID 40262)
- firefly Hh reporter signal, replicate 1: 1.08e5
- firefly Hh reporter signal, replicate 2: 87797
- Renilla reference signal, replicate 1: 3901
- Renilla reference signal, replicate 2: 2736
- call: inactive

CG15870 (GeneID 36446)
- firefly Hh reporter signal, replicate 1: 90096
- firefly Hh reporter signal, replicate 2: 50365
- Renilla reference signal, replicate 1: 2073
- Renilla reference signal, replicate 2: 4345
- call: inactive

CG8944 (GeneID 32517)
- firefly Hh reporter signal, replicate 1: 1.42e5
- firefly Hh reporter signal, replicate 2: 7.41e5
- firefly Hh reporter signal, replicate 3: 1.26e5
- Renilla reference signal, replicate 1: 3129
- Renilla reference signal, replicate 2: 5943
- call: inactive

Ndc1 (GeneID 42825)
- firefly Hh reporter signal, replicate 1: 1.11e5
- firefly Hh reporter signal, replicate 2: 61421
- Renilla reference signal, replicate 1: 4525
- Renilla reference signal, replicate 2: 2256
- call: inactive

udt (GeneID 42809)
- firefly Hh reporter signal, replicate 1: 5.12e5
- firefly Hh reporter signal, replicate 2: 1.36e5
- Renilla reference signal, replicate 1: 23952
- Renilla reference signal, replicate 2: 4016
- call: inactive

peng (GeneID 33112)
- firefly Hh reporter signal, replicate 1: 69688
- firefly Hh reporter signal, replicate 2: 2.12e5
- Renilla reference signal, replicate 1: 1067
- Renilla reference signal, replicate 2: 9792
- call: inactive

wcy (GeneID 32690)
- firefly Hh reporter signal, replicate 1: 72688
- firefly Hh reporter signal, replicate 2: 71268
- Renilla reference signal, replicate 1: 1512
- Renilla reference signal, replicate 2: 1780
- call: inactive

Rab23 (GeneID 40701)
- firefly Hh reporter signal, replicate 1: 77754
- firefly Hh reporter signal, replicate 2: 1.33e5
- Renilla reference signal, replicate 1: 3096
- Renilla reference signal, replicate 2: 3106
- call: inactive

2 entries from above, arranged by “Renilla reference signal, replicate 2”, high to low:
PolA2 (GeneID 43278)
- firefly Hh reporter signal, replicate 1: 76961
- firefly Hh reporter signal, replicate 2: 1.22e5
- Renilla reference signal, replicate 1: 3171
- Renilla reference signal, replicate 2: 3936
- call: inactive

CG15011 (GeneID 38518)
- firefly Hh reporter signal, replicate 1: 99633
- firefly Hh reporter signal, replicate 2: 47239
- Renilla reference signal, replicate 1: 3509
- Renilla reference signal, replicate 2: 1814
- call: inactive
